Test results from PubChem BioAssay AID1439 (NMMLSC, 2008).
In all, about 220,000 compounds went through this assay and about 770 (0.35%) were called active. Inconclusive results, whose numbers are uncertain, are shown with a selection of clear calls. Rule as the data show it: active = binding response below about 49% or above about 150%; inconclusive = no clear call, values can overlap the other calls; inactive = in between.

Sequences of proteins named here, by UniProt entry; tags and fusion partners are left off.
UniProt P09471, whole entry, looked up: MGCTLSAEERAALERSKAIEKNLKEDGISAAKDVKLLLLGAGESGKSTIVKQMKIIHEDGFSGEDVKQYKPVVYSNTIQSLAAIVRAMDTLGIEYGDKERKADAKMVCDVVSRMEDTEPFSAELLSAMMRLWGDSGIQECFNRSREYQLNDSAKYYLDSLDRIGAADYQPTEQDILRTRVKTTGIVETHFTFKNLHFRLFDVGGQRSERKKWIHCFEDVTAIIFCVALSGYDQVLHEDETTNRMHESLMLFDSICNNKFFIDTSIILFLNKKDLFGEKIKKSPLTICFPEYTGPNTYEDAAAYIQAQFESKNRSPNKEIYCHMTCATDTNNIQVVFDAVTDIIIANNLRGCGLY

The compounds below were run against Guanine nucleotide-binding protein G(o) subunit alpha (Homo sapiens) (UniProt P09471) (assay: RGS7-Galphao binding modulators, primary screen, biochemical, multiplexed bead flow cytometry (AID 1439;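 also: fluorescent Galphao held in activated GDP-AlF4 state binding bead-coupled RGS7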)). Conditions: at 10 µM, actives lie on both sides.
For CCOc1cc(CNCc2ccncc2)cc(Br)c1OCc1ccc(F)cc1, the binding response (% of control) was inactive: 101%. For CC(=O)c1cc(CN2CCN(C3CCCCC3)C(CCO)C2)cs1 (centres undefined), the binding response (% of control) was inactive: 100%. For Cc1ccc(NC(=O)CSCC(=O)NCCc2ccccn2)c(C)c1, the binding response (% of control) was inconclusive: 109%. With Cn1nnnc1SCC(=O)N1CCc2ccccc21 the binding response (% of control) was inconclusive: 102%. Cc1nnsc1-c1c(C(=O)N2CCOCC2)c(C)nn1-c1ccc(Cl)cc1 was tested, and the binding response (% of control) was inconclusive: -11.9%. For CCOC(=O)c1c(C)[nH]c(C(=O)NCc2ccco2)c1C, the binding response (% of control) was inconclusive: 107%. In the case of N#Cc1ccc(OCC(=O)N/N=C/C2CC=CCC2)cc1 (centres undefined), the binding response (% of control) is reported as inconclusive: 101%. For COc1ccc(CCNC(=O)CN2C(=O)NC(C)(c3ccc([N+](=O)[O-])cc3)C2=O)cc1 (centres undefined), the binding response (% of control) was inactive: 100%. CC1(C)CC(=O)C2=C(C1)OC1=C(C(=O)CC(C)(C)C1)C2(C)C was tested, and the binding response (% of control) was inactive: 100%. With Cc1ccc(S(=O)(=O)N(C)C)cc1NC(=O)CCNC(=O)c1ccccc1Cl the binding response (% of control) was inactive: 99.5%. For CC/C(=N/OC(=O)c1cccc(C)c1)C(=O)c1cccs1, the binding response (% of control) was inconclusive: 84.9%. O=S(=O)(Nc1nc2ccccc2nc1-[n+]1cccc(N=C([O-])c2ccccc2Cl)c1)c1ccccc1 was tested, and the binding response (% of control) was inconclusive: 168%. In the case of C/C=C/C=C/[C@H]1Cc2cc(O)cc(O)c2O1, the binding response (% of control) is reported as inconclusive: 111%. In the case of S=C1NC[C@H](CC2CCCCC2)N1CCCCC1CCCCC1, the binding response (% of control) is reported as inconclusive: 113%. In the case of Cc1cc(N2CCN(c3nnnn3-c3ccccc3)CC2)n2ncnc2n1, the binding response (% of control) is reported as inactive: 120%. For O=C(O)/C=C/C(=O)N(CC1CCCO1)C1CC(=O)N(c2c(Cl)cccc2Cl)C1=O (centres undefined), the binding response (% of control) was inconclusive: 37.7%. For Cc1ccc2ncnc(Oc3ncccc3[N+](=O)[O-])c2c1, the binding response (% of control) was inconclusive: 87.8%. For O=c1cc[nH]c2ccc([N+](=O)[O-])cc12, the binding response (% of control) was inconclusive: 107%. In the case of CCOC(=O)C1=C(N)OC2=C(C(=O)CCC2)C1c1ccccc1OC (centres undefined), the binding response (% of control) is reported as inactive: 99%. With CN(C)c1ccc(N2C(=O)CC(c3ccccc3)CC2=O)cc1 the binding response (% of control) was inconclusive: 113%. Cc1onc(-c2c(Cl)cccc2Cl)c1NC(=O)NNc1ccccn1 was tested, and the binding response (% of control) was inconclusive: 130%. In the case of Cc1nc(C(=O)NNC(=O)c2ccccc2Cl)c(C(F)(F)F)o1, the binding response (% of control) is reported as inconclusive: 191%. In the case of CCCCc1nc(NCCO)c(C#N)c2c1CCCC2, the binding response (% of control) is reported as inconclusive: 102%. In the case of Cc1ccc(/C=N/NC(=O)Cn2nc(C)c([N+](=O)[O-])c2C)o1, the binding response (% of control) is reported as inconclusive: 94%. For CC(C)(C)CC(C)(C)NC(=S)N1CCN(Cc2ccc3c(c2)OCO3)CC1, the binding response (% of control) was inactive: 101%. CC(C)(C)c1ccc(C(=O)NNC(=S)NCc2ccco2)cc1 was tested, and the binding response (% of control) was inconclusive: 97.1%. With CCOC(=O)c1cnc(SCc2cccc(C)c2)nc1N the binding response (% of control) was inactive: 101%. In the case of CC(C)CCNC1=NCCCCC1, the binding response (% of control) is reported as inactive: 104%. With CN1CCN(c2ccc(CNC(=O)c3cc4ccccc4o3)cc2)CC1 the binding response (% of control) was inconclusive: 11%. In the case of O=C(/C=C/c1ccnc2ccccc12)c1cccs1, the binding response (% of control) is reported as inconclusive: 99%. In the case of CC1(C)OC(=O)C(=NNc2ccccc2[N+](=O)[O-])C(=O)O1, the binding response (% of control) is reported as inconclusive: 95.3%. With Cc1cc(C)cc(NS(=O)(=O)c2ccc(F)cc2)c1 the binding response (% of control) was inconclusive: 134%. In the case of CCCCCCCn1c(=O)c(C(=O)OC)c(N)c2ccccc21, the binding response (% of control) is reported as inconclusive: 93.9%. COc1cccc(CC2(CO)CCCN(C(=O)c3cc[n+]([O-])cc3)C2)c1 (centres undefined) was tested, and the binding response (% of control) was inactive: 106%. In the case of O=C(N/N=C/C=C/c1ccco1)c1cnccn1, the binding response (% of control) is reported as inconclusive: 85%. O=C(N/N=C\c1cc(Br)cs1)c1ccncc1 was tested, and the binding response (% of control) was inconclusive: 59.2%. In the case of O=C(O)c1cccc(Cl)n1, the binding response (% of control) is reported as inconclusive: -48.9%. With COc1ccc(C(CNC(=O)c2ccc(C)c(S(=O)(=O)N3CCCCC3)c2)N(C)C)cc1OC (centres undefined) the binding response (% of control) was inconclusive: 93.6%. In the case of C=CCn1c(C)cc(C(=O)CSc2nc(N)cc(N)n2)c1C, the binding response (% of control) is reported as inconclusive: 99.5%. With CCCCCCN(C(=O)CCCCCN1C(=O)NC(c2ccc(-c3ccccc3)cc2)C(C(=O)OCc2ccccc2)=C1C)C(C(=O)NCCCC)c1cccc(C(=O)OC)c1 (centres undefined) the binding response (% of control) was inconclusive: 121%. O=C(O)CSc1c2c(nc3cc(C(=O)NCCN4CCOCC4)ccc13)CCC2 was tested, and the binding response (% of control) was inconclusive: 114%. In the case of CC(=O)N(C1CC(C)C(C#N)(C#N)C1(C#N)C#N)N(C)C (centres undefined), the binding response (% of control) is reported as inconclusive: 67.2%. With Cc1cc(C)n2nc(N)c(N=Nc3ccccc3)c2n1 the binding response (% of control) was inconclusive: 94.4%. In the case of Cc1cc(C)c2c(CC(=O)NC(C)C)coc2c1, the binding response (% of control) is reported as inactive: 143%. In the case of O=C(CSc1nnnn1-c1ccc(O)cc1)c1ccc(F)cc1, the binding response (% of control) is reported as inconclusive: 95.7%. In the case of O=C(COC(=O)CN1C(=O)c2cccc([N+](=O)[O-])c2C1=O)NC1CCS(=O)(=O)C1 (centres undefined), the binding response (% of control) is reported as inconclusive: -321%. COc1ccc(Nc2nnc(SC(C(=O)Nc3cc(C)ccc3C)c3ccccc3)s2)cc1 (centres undefined) was tested, and the binding response (% of control) was inactive: 104%. In the case of Cc1ccc(S(=O)(=O)NCCC(=O)NCc2ccco2)cc1, the binding response (% of control) is reported as inactive: 91.9%. COc1ccc(N(Cc2ccccc2)S(=O)(=O)c2cccc(C(=O)O)c2)cc1 was tested, and the binding response (% of control) was inconclusive: 4.1%. CC(=O)C1=C(c2ccccc2)NC(=S)NC1c1ccc(O)c(O)c1 (centres undefined) was tested, and the binding response (% of control) was inconclusive: 78.8%. In the case of Cc1ccc(S(=O)(=O)NC(=O)N2CCCN(Cc3ccc(F)cc3)CC2)cc1, the binding response (% of control) is reported as inconclusive: 132%. With O=C(c1cccc(Cl)c1)N1CCn2c1nc1ccccc12 the binding response (% of control) was inactive: 99.6%. Cc1ccc(S(=O)(=O)Nc2ccc3c(c2)nc(CCN2CCOCC2)n3C)cc1 was tested, and the binding response (% of control) was inconclusive: 37.4%. In the case of O=C(NCc1ccco1)Nc1ccc(OC(F)(F)F)cc1, the binding response (% of control) is reported as inconclusive: 786%. With O=C(OCc1nc2ccccc2s1)c1ccc(Br)o1 the binding response (% of control) was inconclusive: 98.1%. In the case of N#Cc1cnc(NOCc2ccc(Cl)cc2)nc1, the binding response (% of control) is reported as inactive: 101%. O=C(CNc1cccc2ccccc12)N/N=C/c1ccccn1 was tested, and the binding response (% of control) was inconclusive: 116%. For CC1CC(C)CN(C(=O)C2CCCN(S(=O)(=O)c3cnc[nH]3)C2)C1 (centres undefined), the binding response (% of control) was inconclusive: 105%. For CCOC(=O)c1c(CN(CC)CC)n(C)c2cc(Br)c(O)cc12, the binding response (% of control) was inconclusive: 107%.
